Columns and labels:
Assay type in all cases: in vivo
mice = assay: Antiarrhythmic activity, method of Ferrini et al, endovenous administration to mice; details: Mus musculus, iv, read-out: Antiarrythmic activity ED50
mean arterial pressure = assay: Decrease in mean arterial pressure (hypotension), anesthetized rats, endovenous; details: Rattus norvegicus, iv
heart rate = assay: Effect on heart rate (bradycardia), anesthetized rats, endovenous; details: Rattus norvegicus, iv

Q: Which ED50 (mice) does the source give for C(=C\c1ccccc1)/CN1CCN(C(c2ccccc2)c2ccccc2)CC1 [Cinnarizine 2HCI, reference compound] here?
A: The ED50 was 23 mg/kg.

Q: And the ED50 (mean arterial pressure)?
A: The ED50 was 1 mg/kg.

Q: What about the ED50 (heart rate) of the same molecule?
A: Its ED50 is 2.8 mg/kg.

From patent publication US4883797A, “Derivatives of piperazine, method for making the same” (Ferrer Internacional, S.A., priority 1982, dated 1989)
